Data as given in PubChem BioAssay AID1259308 (NCATS, 2017)
Purpose: 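Candidate targets for better recombinant protein yield in mammalian cells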 (primary screen). Cell system: human HEK293 embryonic kidney cells stably expressing firefly luciferase (HEK-CMV-Luc2-Hygro). Reagent: single siRNA against human genes, 0.8 pmol siRNA per well. Duration: 72 h. Measured: 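Luciferase light (ONE-Glo) measured on one replicate plate set and viability (CellTiter-Glo) on the other, scaled to a negative control siRNA, with robust z-scores and luciferase per cell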. Reading the numbers: total luciferase, z-score and total luciferase, % of control: higher = more reporter protein produced; luciferase per cell, z-score: higher = more reporter output per viable cell; viable cells, % of control: higher = more viable cells. Call rule: 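An siRNA counts as active if its total luciferase robust z-score exceeds 3; genes with two or more such siRNAs out of three were retested with fresh siRNAs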. Calls: active = raised luciferase; inactive = no rise.
In all, the deposit lists about 59,000 reagents; shown is a random part of them. About 1,510 of all reagents (2.6%) were called active. 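Calls use total luciferase alone and ignore viability, so some active siRNAs may act by altering cell number.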 A number with no mark means an inactive call. The numbers tell different reagents against one gene apart.

gene symbol	reagent no.	total luciferase, z-score	total luciferase, % of control	luciferase per cell, z-score	viable cells, % of control
ATP7B	1	-1.11	59.8	-1.9	110
ATP7B	2	0.268	87.2	0.402	87.7
ATP7B	3	-0.43	73.3	-0.612	96.3
SEC24D	1	0.0745	83.4	-0.389	103
SEC24D	2	0.482	91.5	0.482	90
SEC24D	3	1.7	116	1.85	79.4
ARMC9	1	2.64	134	1.89	91.3
ARMC9	2	-1.36	54.8	0.623	51.9
ARMC9	3	0.779	97.4	0.999	83.7
MATN2	1	0.242	86.7	-0.325	106
MATN2	2	-0.372	74.5	-0.626	98.2
MATN2	3	0.631	94.4	0.618	89.7
KIAA1143	1	-0.335	75.2	-0.604	98.5
KIAA1143	2	-0.111	79.7	-0.553	103
KIAA1143	3	-0.161	78.7	1.17	64.7
HR	1	2.51	132	2.56	75
HR	2	-1.28	56.3	-1.69	98.1
HR	3	-0.971	62.6	-0.914	88.9
TSSK2	1	0.951	101	0.725	93
TSSK2	2	0.945	101	0.501	98.6
TSSK2	3	-0.151	78.9	0.731	72.7
WDR5	1	-0.46	72.7	0.0579	80
WDR5	2	1.2	106	1.83	73
WDR5	3	-0.417	73.6	-0.327	89.6
XRN2	1	0.256	87	-0.09	99.5
XRN2	2	-1.87	44.7	-2.09	86.8
XRN2	3	-1.45	53.1	-0.515	68
PLPP4	1	-0.81	65.8	-0.753	89.6
PLPP4	2	-1.17	58.6	-1.15	88.6
PLPP4	3	-0.813	65.7	-1.33	104

The list goes on, starting with the last 8 of the part before.
gene symbol	reagent no.	total luciferase, z-score	total luciferase, % of control	luciferase per cell, z-score	viable cells, % of control
WDR5	2	1.2	106	1.83	73
WDR5	3	-0.417	73.6	-0.327	89.6
XRN2	1	0.256	87	-0.09	99.5
XRN2	2	-1.87	44.7	-2.09	86.8
XRN2	3	-1.45	53.1	-0.515	68
PLPP4	1	-0.81	65.8	-0.753	89.6
PLPP4	2	-1.17	58.6	-1.15	88.6
PLPP4	3	-0.813	65.7	-1.33	104
ATXN7L1	1	-1.14	59.2	-0.678	79
ATXN7L1	2	-0.837	65.2	-1.46	107
ATXN7L1	3	-1.08	60.3	-1.31	95.2
CLDN11	1	0.104	84	0.264	87.5
CLDN11	2	0.415	90.1	0.976	77.9
CLDN11	3	0.248	86.8	0.453	86.1
ZNF184	1	-0.28	76.3	1.38	59.4
ZNF184	2	1.34	109	0.787	98.6
ZNF184	3	-0.64	69.1	-1.68	120
MTRR	1	1.2	106	0.822	95.2
MTRR	2	0.622	94.3	1.61	68.9
MTRR	3	0.0215	82.3	0.236	86.4
OR13F1	1	0.472	91.3	1.63	66.4
OR13F1	2	0.066	83.2	0.371	84.3
OR13F1	3	0.286	87.6	-0.327	107
KIF7	1	-0.23	77.3	0.173	82.5
KIF7	2	-2.42	33.8	-2.66	76.1
KIF7	3	2.12	124	3.59	53.9
HLA-DQB2	1	-3.19	18.4	-3.4	50.5
HLA-DQB2	2	-0.514	71.7	-0.546	92.5
HLA-DQB2	3	-1.31	55.9	0.176	59.7
AOX1	1	-0.429	73.3	-0.52	94
AOX1	2	-1.72	47.7	-1.24	73.8
AOX1	3	-0.753	66.9	-0.972	96.6
OR1G1	1	-0.885	64.3	-0.937	91.9
OR1G1	2	-0.682	68.3	-0.581	88.9
OR1G1	3	0.355	89	-0.0417	100
ATG4A	1	-0.208	77.8	0.295	80.4
ATG4A	2	-0.934	63.3	-0.918	90.1
ATG4A	3	-0.773	66.5	-1.32	105
TMEM237	1	0.955	101	0.253	105
TMEM237	2	0.461	91	0.11	98.8
TMEM237	3	1.2	106	0.629	100
KRTAP13-4	1	1.78	117	2.41	69.5
KRTAP13-4	2	1.67	115	2.69	63.4
KRTAP13-4	3	0.0139	82.2	0.265	85.6
CTHRC1	1	3.25 (active)	146	1.85	100
CTHRC1	2	-1.51	51.9	-1.84	94.2
CTHRC1	3	0.417	90.2	1.6	66.1
ATP5F1C	1	-0.273	76.5	-0.345	93.6
ATP5F1C	2	-0.398	74	0.78	67.3
ATP5F1C	3	0.907	99.9	0.853	89.2
OR51G1	1	1.17	105	0.6	100
OR51G1	2	-0.138	79.1	-0.167	92.4
OR51G1	3	0.942	101	0.409	101
